pIC50: −log10 of the molar value. Some results were stated once for a whole list of compounds, not compound by compound.
target: T1, IKK-2 (Homo sapiens, UniProt O14920); assay: IKK-2 filter kinase assay; format: biochemical; details: 1 μM ATP, 1-53 GST-IκB substrate, read-out: Inhibition of IKK-2 IC50
T1 sequence (O14920 1-756): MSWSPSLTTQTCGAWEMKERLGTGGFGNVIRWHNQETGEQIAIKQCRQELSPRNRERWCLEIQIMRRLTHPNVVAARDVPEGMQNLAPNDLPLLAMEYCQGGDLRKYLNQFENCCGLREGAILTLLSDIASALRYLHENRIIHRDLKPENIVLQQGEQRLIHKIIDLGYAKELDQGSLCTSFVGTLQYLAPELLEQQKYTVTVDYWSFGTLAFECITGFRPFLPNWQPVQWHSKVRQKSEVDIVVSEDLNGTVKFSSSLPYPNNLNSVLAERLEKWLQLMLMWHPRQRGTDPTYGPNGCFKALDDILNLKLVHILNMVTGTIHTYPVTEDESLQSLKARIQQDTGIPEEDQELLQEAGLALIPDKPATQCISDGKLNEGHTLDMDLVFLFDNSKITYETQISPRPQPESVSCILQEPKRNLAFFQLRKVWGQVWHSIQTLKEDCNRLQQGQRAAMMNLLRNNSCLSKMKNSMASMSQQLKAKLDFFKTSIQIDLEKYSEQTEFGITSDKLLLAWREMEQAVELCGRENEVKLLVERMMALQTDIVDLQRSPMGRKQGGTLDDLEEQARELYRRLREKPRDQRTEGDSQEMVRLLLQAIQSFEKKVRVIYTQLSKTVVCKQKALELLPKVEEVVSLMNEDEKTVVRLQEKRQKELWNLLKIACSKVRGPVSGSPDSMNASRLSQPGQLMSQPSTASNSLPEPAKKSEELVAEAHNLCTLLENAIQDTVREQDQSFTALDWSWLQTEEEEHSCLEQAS
Experimental: The test compounds were dissolved to 10 mM in dimethylsulphoxide (DMSO). The compounds were then diluted 1 in 40 in kinase buffer (50 mM Tris, pH 7.4 containing 0.1 mM EGTA, 0.1 mM sodium orthovanadate and 0.1% β-mercaptoethanol). 1 in 3 serial dilutions were made from this solution with 2.5% DMSO in kinase buffer. 20 μl of compound dilution was added to wells of a 96 well plate in duplicate.
10 μl of a mixture of magnesium acetate, unlabelled ATP, and ^33P-labelled ATP was added to each well made such that the final concentration was 10 mM magnesium acetate, 1 μM ATP and 0.1 μCi ^33P ATP. […] The final reaction volume was 50 μl.
The kinase reactions were incubated at 21° C. for 80 minutes and the reaction stopped by precipitating the protein by the addition of an equal volume (50 μl) of 20% trichloroacetic acid (TCA). The precipitate was allowed to form for 10 minutes and then filtered onto a GF/C unifilter 96 well plate. Each filter was washed twice with approximately 1 ml 2% TCA. The filter plate was dried at 30-40° C. for 60 minutes, 20 μl scintillant was added to each well and the plate sealed and radioactivity counted on a Packard Topcount microplate scintillation counter.

pIC50, > 5.00:
CN(Cc1ccc(-c2cc(NC(N)=O)c(C(N)=O)s2)cc1)C1CCS(=O)(=O)C1 (stereo not shown) [Example 52, 3-[(Aminocarbonyl)amino]-5-[4-{[N-(1-dioxidotetrahydro-3-thienyl)methylamino]methyl}phenyl]thiophene-2-carboxamide]
NC(=O)Nc1cc(-c2ccc(CN(CCO)Cc3ccccc3)cc2)sc1C(N)=O [Example 53, 3-[(Aminocarbonyl)amino]-5-[4-{[N-benzyl-N-(2-hydroxyethyl)amino]methyl}phenyl]thiophene-2-carboxamide]
NC(=O)Nc1cc(-c2ccc(CNCC3CCCO3)cc2)sc1C(N)=O (stereo not shown) [Example 54, 3-[(Aminocarbonyl)amino]-5-[4-{[(tetrahydrofuran-2-ylmethyl)amino]methyl}phenyl]thiophene-2-carboxamide]
COC(C)(C)CNCc1ccc(-c2cc(NC(N)=O)c(C(N)=O)s2)cc1 [Example 55, K3-[(Aminocarbonyl)amino]-5-[4-{[(2-methoxy-2-methyl)propylamino]methyl}phenyl]thiophene-2-carboxamide]
COCCN(C)Cc1ccc(-c2cc(C(N)=O)c(NC(N)=O)s2)cc1 [Example 56]
CCN(CC)Cc1ccc(-c2cc(C(N)=O)c(NC(N)=O)s2)cc1 [Example 57]
CN(CCC#N)Cc1ccc(-c2cc(C(N)=O)c(NC(N)=O)s2)cc1 [Example 58]
N#CCCN(Cc1ccccc1)Cc1ccc(-c2cc(C(N)=O)c(NC(N)=O)s2)cc1 [Example 59]
NC(=O)Nc1sc(-c2ccc(CN(CCO)Cc3ccccc3)cc2)cc1C(N)=O [Example 61, 2-[(Aminocarbonyl)amino]-5-[4-{([N-benzyl-N-(2-hydroxyethyl)]amino)methyl}phenyl]thiophene-3-carboxamide]
NC(=O)Nc1sc(-c2ccc(CN(CCO)CCO)cc2)cc1C(N)=O [Example 62, 2-[(Aminocarbonyl)amino]-5-[4-{(bis-[2-hydroxyethyl]amino)methyl}phenyl]thiophene-3-carboxamide]
